No constants are given. Whether binding was seen depends on the method and setting. Binding seen in cells or lysates may run through a third protein. Some entries that bind do so weakly or less than the wild type.
Biological target: RalA-binding protein 1 (human (endogenous in OVCAR8 and DOV13)) (UniProt Q15311)
Experiment: co-IP; lysates of OVCAR8 and DOV13 cells (IP lysis buffer); anti-RALBP1 (clone 2A1) or anti-REPS1 (clone D6F4) on Dynabeads protein G, 1 mg of cell lysate overnight at 4 °C, washed three times with PBS; Western blot

Amino acid sequences for entries named in this document (tags omitted).
UniProt Q15311: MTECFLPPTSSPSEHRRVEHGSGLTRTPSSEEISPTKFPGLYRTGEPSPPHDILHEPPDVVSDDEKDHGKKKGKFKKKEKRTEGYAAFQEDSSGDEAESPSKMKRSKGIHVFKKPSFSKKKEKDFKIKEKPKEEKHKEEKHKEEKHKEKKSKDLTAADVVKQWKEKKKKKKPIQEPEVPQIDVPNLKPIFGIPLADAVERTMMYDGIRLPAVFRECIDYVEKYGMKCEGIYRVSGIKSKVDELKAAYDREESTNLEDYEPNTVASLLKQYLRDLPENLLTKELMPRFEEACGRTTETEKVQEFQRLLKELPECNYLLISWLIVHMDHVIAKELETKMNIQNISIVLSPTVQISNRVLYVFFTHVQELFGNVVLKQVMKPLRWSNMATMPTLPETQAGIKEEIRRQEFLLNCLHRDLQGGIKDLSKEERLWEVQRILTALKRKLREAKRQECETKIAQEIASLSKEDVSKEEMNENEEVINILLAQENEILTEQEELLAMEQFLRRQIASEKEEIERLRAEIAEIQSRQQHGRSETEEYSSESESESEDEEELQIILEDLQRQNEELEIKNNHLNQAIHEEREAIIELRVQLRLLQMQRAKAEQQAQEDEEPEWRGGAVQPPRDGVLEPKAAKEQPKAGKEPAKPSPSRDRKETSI

binding: binds
B1: RalBP1-associated Eps domain-containing protein 1 (protein, UniProt Q96D71 1-796)
chain: MEGLTLSDAEQKYYSDLFSYCDIESTKKVVVNGRVLELFRAAQLPNDVVLQIMELCGATRLGYFGRSQFYIALKLVAVAQSGFPLRVESINTVKDLPLPRFVASKNEQESRHAASYSSDSENQGSYSGVIPPPPGRGQVKKGSVSHDTVQPRTSADAQEPASPVVSPQQSPPTSPHTWRKHSRHPSGGNSERPLAGPGPFWSPFGEAQSGSSAGDAVWSGHSPPPPQENWVSFADTPPTSTLLTMHPASVQDQTTVRTVASATTAIEIRRQSSSYDDPWKITDEQRQYYVNQFKTIQPDLNGFIPGSAAKEFFTKSKLPILELSHIWELSDFDKDGALTLDEFCAAFHLVVARKNGYDLPEKLPESLMPKLIDLEDSADVGDQPGEVGYSGSPAEAPPSKSPSMPSLNQTWPELNQSSEQWETFSERSSSSQTLTQFDSNIAPADPDTAIVHPVPIRMTPSKIHMQEMELKRTGSDHTNPTSPLLVKPSDLLEENKINSSVKFASGNTVADGYSSSDSFTSDPEQIGSNVTRQRSHSGTSPDNTAPPPPPPRPQPSHSRSSSLDMNRTFTVTTGQQQAGVVAHPPAVPPRPQPSQAPGPAVHRPVDADGLITHTSTSPQQIPEQPNFADFSQFEVFAASNVNDEQDDEAEKHPEVLPAEKASDPASSLRVAKTDSKTEEKTAASAPANVSKGTTPLAPPPKPVRRRLKSEDELRPEVDEHTQKTGVLAAVLASQPSIPRSVGKDKKAIQASIRRNKETNTVLARLNSELQQQLKDVLEERISLEVQLEQLRPFSHL
